Test results reported in paper PMC10605742.
Results are given in words; binding and its absence hold for the method and conditions named. Binding seen in cells or lysates may run through a third protein. Some entries that bind do so weakly or less than the wild type.

Chains of the proteins cited; added tags and fusions are not shown. Lines headed by an entry give the natural chain unless they say otherwise; changes in a name come on top.
UniProt P61586: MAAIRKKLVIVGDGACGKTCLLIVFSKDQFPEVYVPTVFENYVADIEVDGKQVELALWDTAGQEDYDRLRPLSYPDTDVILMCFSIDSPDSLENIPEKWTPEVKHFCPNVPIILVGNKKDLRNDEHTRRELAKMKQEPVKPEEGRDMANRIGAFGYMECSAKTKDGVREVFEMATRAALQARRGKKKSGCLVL

T1: caveolin-3 (rat (endogenous in NRCM)) (UniProt P51638)
T1 sequence: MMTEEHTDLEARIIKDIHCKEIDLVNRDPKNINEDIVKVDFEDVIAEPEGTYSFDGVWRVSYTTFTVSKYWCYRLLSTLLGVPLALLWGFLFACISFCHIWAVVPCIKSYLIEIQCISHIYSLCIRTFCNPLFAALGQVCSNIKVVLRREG

T2: endothelial nitric oxide synthase (rat (endogenous in NRCM)) (UniProt Q62600)
T2 sequence: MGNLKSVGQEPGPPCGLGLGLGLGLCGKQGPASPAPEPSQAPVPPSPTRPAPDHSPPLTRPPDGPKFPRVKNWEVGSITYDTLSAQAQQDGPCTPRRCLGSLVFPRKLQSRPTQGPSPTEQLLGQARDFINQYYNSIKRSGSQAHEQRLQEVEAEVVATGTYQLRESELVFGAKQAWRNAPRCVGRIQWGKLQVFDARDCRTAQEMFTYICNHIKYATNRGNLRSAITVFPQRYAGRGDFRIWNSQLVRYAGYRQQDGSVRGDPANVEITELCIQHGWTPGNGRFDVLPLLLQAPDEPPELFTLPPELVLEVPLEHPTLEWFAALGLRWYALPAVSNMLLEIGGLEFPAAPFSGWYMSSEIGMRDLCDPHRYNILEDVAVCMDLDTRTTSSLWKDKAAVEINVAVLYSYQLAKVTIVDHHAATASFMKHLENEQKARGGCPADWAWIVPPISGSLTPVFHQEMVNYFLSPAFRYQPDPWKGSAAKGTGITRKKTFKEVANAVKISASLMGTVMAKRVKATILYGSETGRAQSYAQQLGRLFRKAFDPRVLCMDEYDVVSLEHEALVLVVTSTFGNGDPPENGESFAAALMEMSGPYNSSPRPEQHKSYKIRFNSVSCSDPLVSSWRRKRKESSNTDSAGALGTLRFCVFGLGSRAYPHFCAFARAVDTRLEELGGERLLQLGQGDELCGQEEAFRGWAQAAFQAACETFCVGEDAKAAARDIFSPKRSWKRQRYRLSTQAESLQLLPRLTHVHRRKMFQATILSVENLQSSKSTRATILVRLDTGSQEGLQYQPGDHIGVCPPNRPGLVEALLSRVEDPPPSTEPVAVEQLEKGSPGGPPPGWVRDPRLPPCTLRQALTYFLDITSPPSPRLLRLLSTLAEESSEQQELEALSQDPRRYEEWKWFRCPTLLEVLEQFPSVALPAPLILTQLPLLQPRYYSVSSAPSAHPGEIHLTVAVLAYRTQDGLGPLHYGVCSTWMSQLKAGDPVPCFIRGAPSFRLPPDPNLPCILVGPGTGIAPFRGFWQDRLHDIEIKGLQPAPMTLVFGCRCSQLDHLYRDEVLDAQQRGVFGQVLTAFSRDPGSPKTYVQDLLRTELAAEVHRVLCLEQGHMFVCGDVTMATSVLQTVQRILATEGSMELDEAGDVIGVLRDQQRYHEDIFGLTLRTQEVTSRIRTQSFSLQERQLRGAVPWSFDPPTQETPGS

B1: endothelial nitric oxide synthase (enzyme, UniProt Q62600 1-1202)
chain: MGNLKSVGQEPGPPCGLGLGLGLGLCGKQGPASPAPEPSQAPVPPSPTRPAPDHSPPLTRPPDGPKFPRVKNWEVGSITYDTLSAQAQQDGPCTPRRCLGSLVFPRKLQSRPTQGPSPTEQLLGQARDFINQYYNSIKRSGSQAHEQRLQEVEAEVVATGTYQLRESELVFGAKQAWRNAPRCVGRIQWGKLQVFDARDCRTAQEMFTYICNHIKYATNRGNLRSAITVFPQRYAGRGDFRIWNSQLVRYAGYRQQDGSVRGDPANVEITELCIQHGWTPGNGRFDVLPLLLQAPDEPPELFTLPPELVLEVPLEHPTLEWFAALGLRWYALPAVSNMLLEIGGLEFPAAPFSGWYMSSEIGMRDLCDPHRYNILEDVAVCMDLDTRTTSSLWKDKAAVEINVAVLYSYQLAKVTIVDHHAATASFMKHLENEQKARGGCPADWAWIVPPISGSLTPVFHQEMVNYFLSPAFRYQPDPWKGSAAKGTGITRKKTFKEVANAVKISASLMGTVMAKRVKATILYGSETGRAQSYAQQLGRLFRKAFDPRVLCMDEYDVVSLEHEALVLVVTSTFGNGDPPENGESFAAALMEMSGPYNSSPRPEQHKSYKIRFNSVSCSDPLVSSWRRKRKESSNTDSAGALGTLRFCVFGLGSRAYPHFCAFARAVDTRLEELGGERLLQLGQGDELCGQEEAFRGWAQAAFQAACETFCVGEDAKAAARDIFSPKRSWKRQRYRLSTQAESLQLLPRLTHVHRRKMFQATILSVENLQSSKSTRATILVRLDTGSQEGLQYQPGDHIGVCPPNRPGLVEALLSRVEDPPPSTEPVAVEQLEKGSPGGPPPGWVRDPRLPPCTLRQALTYFLDITSPPSPRLLRLLSTLAEESSEQQELEALSQDPRRYEEWKWFRCPTLLEVLEQFPSVALPAPLILTQLPLLQPRYYSVSSAPSAHPGEIHLTVAVLAYRTQDGLGPLHYGVCSTWMSQLKAGDPVPCFIRGAPSFRLPPDPNLPCILVGPGTGIAPFRGFWQDRLHDIEIKGLQPAPMTLVFGCRCSQLDHLYRDEVLDAQQRGVFGQVLTAFSRDPGSPKTYVQDLLRTELAAEVHRVLCLEQGHMFVCGDVTMATSVLQTVQRILATEGSMELDEAGDVIGVLRDQQRYHEDIFGLTLRTQEVTSRIRTQSFSLQERQLRGAVPWSFDPPTQETPGS
B2: p190RhoGAP-A (protein, UniProt P81128 1-1499)
chain: MMMARKQDVRIPTYNISVVGLSGTEKEKGQCGIGKSCLCNRFVRPSADEFHLDHTSVLSTSDFGGRVVNNDHFLYWGEVSRSLEDCVECKMHIVEQTEFIDDQTFQPHRSTALQPYIKRAAATKLASAEKLMYFCTDQLGLEQDFEQKQMPDGKLLVDGFLLGIDVSRGMNRNFDDQLKFVSNLYNQLAKTKKPIVIVLTKCDEGVERYIRDAHTFALSKKNLQVVETSARSNVNVDLAFSTLVQLIDKSRGKTKIIPYFEALKQQSQQIATAKDKYEWLVSRIVKSHNENWLSVSRKMQASPEYQDYVYLEGTQKAKKLFLQHIHRLKHEHIERRRKLYLAALPLAFEALIPNLDEVDHLSCIKAKKLLETKPEFLKWFVVLEETPWDETSHIDNMENERIPFDLMDTVPAEQLYETHLEKLRNERKRAEMRRAFKENLETSPFITPGKPWEEARSFIMNEDFYQWLEESVYMDIYGKHQKQIIDRAKEEFQELLLEYSELFYELELDAKPSKEKMGVIQDVLGEEQRFKALQKLQAERDALILKHIHFVYHPTKETCPSCPACVDAKIEHLISSRFIRPSDRNQKNSLSDPNIDRINLVILGKDGLARELANEIRALCTNDDKYVIDGKMYELSLRPIEGNVRLPVNSFQTPTFQPHGCLCLYNSKESLSYVVESIEKSRESTLGRRDNHLVHLPLTLILVNKRGDTSGETLHSLIQQGQQIASKLQCVFLDPASAGIGYGRNINEKQISQVLKGLLDSKRNLNLVSSTASIKDLADVDLRIVMCLMCGDPFSADDILSPVLQSQTCKSSHCGSSNSVLLELPIGVHKKRIELSVLSYHSSFSIRKSRLVHGYIVFYSAKRKASLAMLRAFLCEVQDIIPIQLVALTDGAIDVLDNDLSREQLTEGEEIAQEIDGRFTSIPCSQPQHKLELFHPFFKDVVEKKNIIEATHMYDNVAEACSTTEEVFNSPRAGSPLCNSNLQDSEEDVEPPSYHLFREDATLPSLSKDHSKFSMELEGNDGLSFIMSNFESKLNNKVPPPVKPKPPVHFEITKDLSYLDQGHREGQRKSMSSSPWMPQDGFDPSDYAEPMDAVVKPRNEEENIYSVPHDSTQGKIITIRNINKAQSNGSGNGSDSEMDTSSLERGRKVSAVSKPVLYRTRCTRLGRFASYRTSFSVGSDDELGPIRKKEEDQASQGYKGDNAVIPYETDEDPRRRNILRSLRRNTKKPKPKPRPSITKATWESNYFGVPLTTVVTPEKPIPIFIERCIEYIEATGLSTEGIYRVSGNKSEMESLQRQFDQDHNLDLAEKDFTVNTVAGAMKSFFSELPDPLVPYSMQIDLVEAHKINDREQKLHALKEVLKKFPKENHEVFKYVISHLNRVSHNNKVNLMTSENLSICFWPTLMRPDFSSMDALTATRSYQTIIELFIQQCPFFFYNRPISEPPGAAPGSPSAMAPTVPFLTSTPATSQPSPPQSPPPTPQSPMQPLLSSQLQAEHTL

Tests used:
[1] = target: T1, caveolin-3 (rat (endogenous in NRCM)); assay: co-IP; lysates of NRCM transduced with Ad-RGS3L-N460A (or Ad-EGFP), with or without 1 mM carbachol for 5 min, in some panels pretreated with 10 µM L-NIO or 10 µM L-NAME; buffer 50 mM Tris-HCl pH 7.4, 2 mM EDTA, 150 mM NaCl, 0.1% SDS, 1% Nonidet P-40, 10 mM NaF; 2 µg antibody (anti-p190A, anti-eNOS, anti-Cav3 or anti-RGS3), protein-A-sepharose, 4 °C; immunoblot
[2] = target: T2, endothelial nitric oxide synthase (rat (endogenous in NRCM)); assay: as above
[3] = target: constitutively active RhoA (RhoAQ63L)-GST (UniProt P61586); assay: pull-down; RhoAQ63L-GST- or Rac1Q61L-GST-coated sepharose beads; lysates of NRCM transduced with Ad-RGS3L-N460A or Ad-EGFP for 48 h, with or without 1 mM carbachol for 5 min; bound p190A or p190B detected by immunoblot with isoform-specific antibodies; only the target purified

| Binder | binding [1] | binding [2] | binding [3] |
| --- | --- | --- | --- |
| B1 | binds |  |  |
| B2 | binds | binds | binds |
